Laboratory results as given in patent publication US20260137784A1.
These are yes or no findings as the source states them, for the method shown. Some binding calls cover weakened binding; strength is not graded here. Sequences can lack the tags named with a protein.

Protein sequences, listed by entry. Tags and fused reporters are not part of them. Residues count along the entry.
UniProt P25092, residues 24-1073: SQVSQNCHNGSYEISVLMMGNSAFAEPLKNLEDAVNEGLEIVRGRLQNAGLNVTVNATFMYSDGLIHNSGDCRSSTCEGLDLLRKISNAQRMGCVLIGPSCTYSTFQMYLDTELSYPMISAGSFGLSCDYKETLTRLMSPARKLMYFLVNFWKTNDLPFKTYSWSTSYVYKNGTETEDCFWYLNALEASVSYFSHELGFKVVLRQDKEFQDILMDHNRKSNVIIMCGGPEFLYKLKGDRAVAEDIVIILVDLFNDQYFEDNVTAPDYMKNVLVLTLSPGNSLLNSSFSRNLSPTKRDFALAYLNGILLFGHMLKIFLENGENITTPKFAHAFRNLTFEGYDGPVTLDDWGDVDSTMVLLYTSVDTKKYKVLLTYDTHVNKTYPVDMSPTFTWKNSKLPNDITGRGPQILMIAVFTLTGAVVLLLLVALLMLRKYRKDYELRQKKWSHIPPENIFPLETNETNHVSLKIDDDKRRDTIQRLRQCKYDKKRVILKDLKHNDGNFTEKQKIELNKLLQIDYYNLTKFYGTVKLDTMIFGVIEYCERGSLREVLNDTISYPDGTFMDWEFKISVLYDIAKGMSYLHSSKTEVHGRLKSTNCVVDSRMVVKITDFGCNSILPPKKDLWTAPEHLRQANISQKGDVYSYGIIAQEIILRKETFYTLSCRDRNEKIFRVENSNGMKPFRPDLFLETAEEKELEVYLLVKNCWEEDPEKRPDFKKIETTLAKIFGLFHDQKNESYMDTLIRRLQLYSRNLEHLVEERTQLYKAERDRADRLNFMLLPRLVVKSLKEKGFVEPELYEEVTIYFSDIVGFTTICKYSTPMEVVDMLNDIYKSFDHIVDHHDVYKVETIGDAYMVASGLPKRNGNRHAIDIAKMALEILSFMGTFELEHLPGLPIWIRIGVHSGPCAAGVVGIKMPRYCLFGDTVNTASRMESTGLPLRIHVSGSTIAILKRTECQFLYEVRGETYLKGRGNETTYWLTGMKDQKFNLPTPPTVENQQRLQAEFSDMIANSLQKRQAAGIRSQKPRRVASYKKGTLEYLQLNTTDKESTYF

Assays:
[1] = target: GUCY2C (Guanylate Cyclase 2C) (human) (UniProt P25092); assay: fluorescence of HEK cells transfected with GUCY2C plasmid or empty vector after incubation with the fusion protein at various concentrations
[2] = target: GUCY2C (Guanylate Cyclase 2C) (human) (UniProt P25092); assay: membrane proteome array of over 6,000 human membrane proteins

binding [1]: binds | binding [2]: binds
B1: G22H8-GFP (G22H8 nanobody expressed as a GFP fusion protein) (VHH, not shown: large carriers)
VHH: QVQLVESGGGLVQPGGSLRLSCAASRNIASLYRVDWYRQAPGKGLELVAGRTSGGTTTYLDAVEGRFTISRDNVKDTLYLQMNSLRAEDTAVYYCHAHDHWRDSWGQGTLVTVSS
